Data from article PMC7140707.
Results are given in words; binding and its absence hold for the method and conditions named. Binding seen in cells or lysates may run through a third protein. Here binding means that the protein was enriched with, or labelled near, the bait; the list need not be complete. Sequences can lack the tags named with a protein.

T1: His6-Gis1 (yeast (S. cerevisiae)) (UniProt Q03833)
T1 sequence: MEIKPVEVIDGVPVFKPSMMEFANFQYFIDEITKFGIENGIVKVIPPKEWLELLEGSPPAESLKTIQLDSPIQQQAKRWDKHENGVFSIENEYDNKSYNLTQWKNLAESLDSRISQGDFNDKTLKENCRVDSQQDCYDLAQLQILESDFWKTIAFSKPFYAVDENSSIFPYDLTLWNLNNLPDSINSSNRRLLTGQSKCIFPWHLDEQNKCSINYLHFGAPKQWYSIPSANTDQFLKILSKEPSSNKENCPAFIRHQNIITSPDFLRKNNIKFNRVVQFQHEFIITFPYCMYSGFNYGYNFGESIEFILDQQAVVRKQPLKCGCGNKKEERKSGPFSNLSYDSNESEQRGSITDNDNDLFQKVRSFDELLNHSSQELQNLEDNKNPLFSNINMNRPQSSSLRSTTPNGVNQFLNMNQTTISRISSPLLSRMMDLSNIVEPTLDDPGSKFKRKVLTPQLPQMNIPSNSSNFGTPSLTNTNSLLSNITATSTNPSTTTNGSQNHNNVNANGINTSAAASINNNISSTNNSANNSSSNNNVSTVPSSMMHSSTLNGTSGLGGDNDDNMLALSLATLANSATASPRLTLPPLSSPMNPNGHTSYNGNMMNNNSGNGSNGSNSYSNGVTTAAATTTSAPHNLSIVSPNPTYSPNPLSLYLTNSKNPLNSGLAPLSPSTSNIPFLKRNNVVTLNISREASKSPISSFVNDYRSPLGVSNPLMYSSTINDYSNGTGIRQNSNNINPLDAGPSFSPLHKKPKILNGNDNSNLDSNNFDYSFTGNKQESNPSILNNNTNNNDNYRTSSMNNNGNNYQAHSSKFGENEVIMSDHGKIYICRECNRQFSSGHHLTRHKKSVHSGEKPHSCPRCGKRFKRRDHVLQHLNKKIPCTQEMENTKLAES

B1: MSC1 (protein, UniProt Q03104 1-513)
chain: MKQFKLVNAVSASFVLIGLVLANSDSVFDKWTQEDLADYLRDNKKSLEKYATDSIEDLKTEASQVWDKHAQPKPWWQVWSSDSSSVSNSNPGWFGYTGSSDHPVSDWLFDTWSTDSLRNFLKKNGVDVDDAKASKDSLVKTAKENFNKISKSLKSSGYYPSSSYFDSWSTKDLQNWLNDNGIDYDKAVQSKDELVQKVKENIYRTSEKAEQQRLGLLESLDLAHQQILDTSGQIKDTVFDKWSSDQLTNWLESHKVNIDKNMAKKHDYLVRMAKENSANLKDDIYWYLDYMKRESSPFLTKTPEYVGSVWDSSKNFLTNLYSKFRGKTDNVINDTFLVGLDSWPKDKLKMFLDARGIKYSMLSTEHQLRELVKKSRNEKLKILPKDYQKYFDNSNWSLDDIKGWFADKKDDFQDSQTYSTIMQDFDKVSKNTNDAKDQIAKTWSNTFQSWSQEDLLQYLKSFGVPVKQTSTKDDLINLAKQNTQWLFGTVKEPAYKRYLHNVKNWSKSILGFN
B2: LYS20 (protein, UniProt P48570 1-428)
chain: MTAAKPNPYAAKPGDYLSNVNNFQLIDSTLREGEQFANAFFDTEKKIEIARALDDFGVDYIELTSPVASEQSRKDCEAICKLGLKAKILTHIRCHMDDAKVAVETGVDGVDVVIGTSKFLRQYSHGKDMNYIAKSAVEVIEFVKSKGIEIRFSSEDSFRSDLVDLLNIYKTVDKIGVNRVGIADTVGCANPRQVYELIRTLKSVVSCDIECHFHNDTGCAIANAYTALEGGARLIDVSVLGIGERNGITPLGGLMARMIVAAPDYVKSKYKLHKIRDIENLVADAVEVNIPFNNPITGFCAFTHKAGIHAKAILANPSTYEILDPHDFGMKRYIHFANRLTGWNAIKARVDQLNLNLTDDQIKEVTAKIKKLGDVRSLNIDDVDSIIKNFHAEVSTPQVLSAKKNKKNDSDVPELATIPAAKRTKPSA
B3: IRC22 (protein, UniProt P40006 25-225)
chain: NNSDNVEHEQEVAEAVAPPSINIEVKYDVVGKESENHDSFLEFYAEDTATLAYNVTNWEDTNITIFGVNGTIVTYPHGYPVADITGASIGPYEMEVNGTSKFGQDVTLNLPEGQYFLIPFLLASRFDEIVRIAAPPTLFEIVSPPISFFNPQFLSVQVIFLAIIGGVSYYYMKSKTNQRPSKKSATVKKVDESWLPETYKK
B4: MPE1 (protein, UniProt P35728 1-441)
chain: MSSTIFYRFKSQRNTSRILFDGTGLTVFDLKREIIQENKLGDGTDFQLKIYNPDTEEEYDDDAFVIPRSTSVIVKRSPAIKSFSVHSRLKGNVGAAALGNATRYVTGRPRVLQKRQHTATTTANVSGTTEEERIASMFATQENQWEQTQEEMSAATPVFFKSQTNKNSAQENEGPPPPGYMCYRCGGRDHWIKNCPTNSDPNFEGKRIRRTTGIPKKFLKSIEIDPETMTPEEMAQRKIMITDEGKFVVQVEDKQSWEDYQRKRENRQIDGDETIWRKGHFKDLPDDLKCPLTGGLLRQPVKTSKCCNIDFSKEALENALVESDFVCPNCETRDILLDSLVPDQDKEKEVETFLKKQEELHGSSKDGNQPETKKMKLMDPTGTAGLNNNTSLPTSVNNGGTPVPPVPLPFGIPPFPMFPMPFMPPTATITNPHQADASPKK
B5: IRC5 (protein, UniProt P43610 1-853)
chain: MSRCSNAALMTVVEDAVGARVAARTRNMSNGVNYREKEVNDLTADISDSDSDLDSEDNKHGKGDNDTAPIWLQDDVHSDEDIQLDSEDDSDTEAVQAQVVDKLAKDTKSEQKSLDDELSEMDTKTVSLKLKKLNEFVRQSQVYSSIIADTLLHRSNEVANANTKDNSNSDDEEHSSKKRKTKKKSITDFFKKQKKNEDTTTQNGAPDDAAIKQPRLLKNCILKPYQLEGLNWLITLYENGLNGILADEMGLGKTVQSIALLAFIYEMDTKGPFLVTAPLSTLDNWMNEFAKFAPDLPVLKYYGTNGYKERSAKLKNFFKQHGGTGIVITSYEIILRDTDLIMSQNWKFLIVDEGHRLKNINCRLIKELKKINTSNRLLLTGTPLQNNLAELWSLLNFIMPDIFADFEIFNKWFDFDSLNLGSGSNSEALNKLINDELQKNLISNLHTILKPFLLRRLKKVVLANILPPKREYIINCPMTSAQEKFYKAGLNGKLKKTMFKELIKDFFTLNDEYIGHVSNRSIRDFINYKLSGNETSNTDNKINPTLLQMDKLYKKNLQMEISNKKLQNMMMQLRQIIDSTFLFYFPYLHPEDLTLETLLKTSGKLQILQKLIPPLISEGHKVLIYSQFVNMLDLIEDWCDLNSFATFRIDGSVNNETRKDQLEKFNSSKDKHNIFLLSTRAAGLGINLVGADTVVLFDSDWNPQVDLQAMDRCHRIGQESPVIVYRLCCDNTIEHVILTRAANKRNLERMVIQMGKFNNLKKLALNEGSFLKANKAGVNVTNKDLVQELSMLLMSDESNIGFENGGQKENKATEGQLTDKEVEELTNRSLEAYKANRVVDLPHVKLFETTSGL
B6: NPA3 (protein, UniProt P47122 1-385)
chain: MSLSTIICIGMAGSGKTTFMQRLNSHLRAEKTPPYVINLDPAVLRVPYGANIDIRDSIKYKKVMENYQLGPNGAIVTSLNLFSTKIDQVIRLVEQKKDKFQNCIIDTPGQIECFVWSASGAIITESFASSFPTVIAYIVDTPRNSSPTTFMSNMLYACSILYKTKLPMIVVFNKTDVCKADFAKEWMTDFESFQAAIKEDQDLNGDNGLGSGYMSSLVNSMSLMLEEFYSQLDVVGVSSFTGDGFDEFMQCVDKKVDEYDQYYKQEREKALNLKKKKEEMRKQKSLNGLMKDLGLNEKSSAAASDNDSIDAISDLEEDANDGLVDRDEDEGVEREYTFPGEERTKGEVNENSAPDLQRRYQEAMQQVGKTASSETAENIAKYIRN
B7: CKS1 (protein, UniProt P20486 1-150)
chain: MYHHYHAFQGRKLTDQERARVLEFQDSIHYSPRYSDDNYEYRHVMLPKAMLKVIPSDYFNSEVGTLRILTEDEWRGLGITQSLGWEHYECHAPEPHILLFKRPLNYEAELRAATAAAQQQQQQQQQQQQQQQQHQTQSISNDMQVPPQIS
B8: INA22 (protein, UniProt P40576 27-216)
chain: VASANAGIKRKSRFDKTMIKPLLLVMIFGSILNAVIAEKRNIIDMERKYKLKLDKLKELIRRVHDNNGKVDFDADDELKLVNLRLGIVGKNATGMKEDETDIVVPKEESLEEIWQSIIDEAKKEVIEKTPDAGVKNKEGIVTDLNVLKDLEKSKKEDEKVYLSGDVHMMMNQPGDLNEIAKEHDKIPKFL
B9: HFD1 (protein, UniProt Q04458 1-532)
chain: MSNDGSKILNYTPVSKIDEIVEISRNFFFEKQLKLSHENNPRKKDLEFRQLQLKKLYYAVKDHEEELIDAMYKDFHRNKIESVLNETTKLMNDILHLIEILPKLIKPRRVSDSSPPFMFGKTIVEKISRGSVLIIAPFNFPLLLAFAPLAAALAAGNTIVLKPSELTPHTAVVMENLLTTAGFPDGLIQVVQGAIDETTRLLDCGKFDLIFYTGSPRVGSIVAEKAAKSLTPCVLELGGKSPTFITENFKASNIKIALKRIFFGAFGNSGQICVSPDYLLVHKSIYPKVIKECESVLNEFYPSFDEQTDFTRMIHEPAYKKAVASINSTNGSKIVPSKISINSDTEDLCLVPPTIVYNIGWDDPLMKQENFAPVLPIIEYEDLDETINKIIEEHDTPLVQYIFSDSQTEINRILTRLRSGDCVVGDTVIHVGITDAPFGGIGTSGYGNYGGYYGFNTFSHERTIFKQPYWNDFTLFMRYPPNSAQKEKLVRFAMERKPWFDRNGNNKWGLRQYFSLSAAVILISTIYAHCSS
B10: MLF3 (protein, UniProt P32047 1-452)
chain: MCVYKSNSNNSNPSFIFERTVQEASSNDLFLQPPVSASNTSHSSRSNSFYNLQTISPIPISGSEVRTPSLRKNSNNVSSPLDNVIPTSRSASNSTTSSLAHQEYILNPICNMQNHHHRRRTLENSVAPALDASCSIVNDENTDLSDVDMVYSRRPSSAVSLNMALLARTNSATLPSSESSPASPDLKLSRSHSHSAATRPTLNNINNTGMTTTTSNGEPNSRILRFYSYVDMLNDEKLAQANNTPTSRPPMKSQAYSCPFILKRSPPQAYSSSSATTTFSNPFIKTTELPATSPYVSPQQSARQYSNNANNNAKSPKNRSSSILFQRQSILSNVDPVANMHKNPKFQIESSDSEEEDLTMDMLDPSFPLSSSLRSSANLASNPELATQTPLSTSSSYTAIGKPMPLSTDPSYVSSSNTLSSEHELRVEKVSEVLKKKVSNGGFSTEFNSCDT

Biological target: T1, His6-Gis1 (yeast (S. cerevisiae))
Experiment: affinity purification with mass spectrometry; His6-Gis1 pre-bound to a Ni Sepharose 6 Fast Flow column; crude yeast extract (Δgis1 cells grown in air or under hypoxia, Δgis1Δhem1 cells at intermediate or high ALA) loaded, 4 °C, 2 h; eluted complexes separated by SDS-PAGE, bands excised, MS; only the target purified

binding | Binder
binds | B1
binds | B2
binds | B3
binds | B4
binds | B5
binds | B6
binds | B7
binds | B8
binds | B9
binds | B10
